From PMC7305291, “Cryo-EM snapshots of mycobacterial arabinosyltransferase complex EmbB2-AcpM2” (Protein & Cell, 2020) come the findings set out here.

Protein sequences, listed by entry. Tags and fused reporters are not part of them.
UniProt A0R0B3: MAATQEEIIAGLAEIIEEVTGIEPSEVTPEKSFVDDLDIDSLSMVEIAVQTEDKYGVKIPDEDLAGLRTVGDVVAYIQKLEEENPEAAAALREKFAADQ

Positions count from the first letter of the chain named. No constants are given. Whether binding was seen depends on the method and setting. Binding seen in cells or lysates may run through a third protein. These calls come from enrichment with a bait or labelling near it, and not all partners need be listed. For some assays here: No binding means not detected with the bait. Where a sequence is shown, tags or fusion partners need not be part of it.

Assay [1] addresses T1, EmbB triple-alanine mutant (R249, R253, and R454) (Mycobacterium smegmatis) (UniProt Q50395).
T1 sequence: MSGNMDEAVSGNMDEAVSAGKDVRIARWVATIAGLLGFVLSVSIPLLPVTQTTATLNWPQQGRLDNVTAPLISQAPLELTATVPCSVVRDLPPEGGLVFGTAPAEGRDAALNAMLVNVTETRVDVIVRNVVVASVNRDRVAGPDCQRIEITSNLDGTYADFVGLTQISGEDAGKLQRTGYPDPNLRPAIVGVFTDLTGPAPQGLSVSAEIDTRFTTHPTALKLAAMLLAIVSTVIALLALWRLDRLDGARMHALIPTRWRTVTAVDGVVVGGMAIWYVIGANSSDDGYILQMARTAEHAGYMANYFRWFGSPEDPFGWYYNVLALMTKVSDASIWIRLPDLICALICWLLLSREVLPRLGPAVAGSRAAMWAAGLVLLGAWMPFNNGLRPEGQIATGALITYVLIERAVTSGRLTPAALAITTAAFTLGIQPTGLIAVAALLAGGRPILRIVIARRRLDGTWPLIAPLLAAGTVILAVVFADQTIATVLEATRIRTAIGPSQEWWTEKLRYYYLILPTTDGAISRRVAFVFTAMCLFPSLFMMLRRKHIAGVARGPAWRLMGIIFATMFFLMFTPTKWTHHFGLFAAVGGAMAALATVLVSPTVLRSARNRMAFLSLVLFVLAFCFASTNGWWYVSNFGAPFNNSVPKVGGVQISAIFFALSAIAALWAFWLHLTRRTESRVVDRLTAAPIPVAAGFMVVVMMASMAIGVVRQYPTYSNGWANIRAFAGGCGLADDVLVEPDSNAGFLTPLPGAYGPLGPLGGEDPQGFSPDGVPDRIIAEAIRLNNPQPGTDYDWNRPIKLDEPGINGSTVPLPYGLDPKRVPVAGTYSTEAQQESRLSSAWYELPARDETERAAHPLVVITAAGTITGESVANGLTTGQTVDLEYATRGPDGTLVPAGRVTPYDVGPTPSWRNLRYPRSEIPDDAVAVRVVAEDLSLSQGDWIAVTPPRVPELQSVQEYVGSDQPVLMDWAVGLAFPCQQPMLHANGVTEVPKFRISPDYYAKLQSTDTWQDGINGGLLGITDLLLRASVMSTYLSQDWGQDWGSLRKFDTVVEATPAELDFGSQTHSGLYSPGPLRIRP
Briefly: co-purification (silver-stained gel, mass spectrometry); EmbB overexpressed in M. smegmatis and purified; endogenous AcpM in the purified sample identified by silver staining (Fig. S1C) and mass spectrometry (Fig. S1D).

The target in assay [2] is T2, Mycobacterium smegmatis arabinosyltransferase EmbB (MSMEG_6389) (Mycobacterium smegmatis) (UniProt Q50395).
T2 sequence: T1 sequence with A249R, A253R, A454R
The description is as above.

For “acyl-carrier-protein AcpM (MSMEG_4326) (from UniProt A0R0B3 1-99)”, the binding entry in assay [1] is “no binding”; in assay [2], “binds”.
